From EP0442769A2 (priority 1990, dated 1991)

Test system: globules rouges

Row | Structure (SMILES) | Rdt Encap (rendement d'encapsulation) | Rdt Glob (rendement globulaire) | Rdt Hb (rendement en hémoglobine) | Rdt Hte (rendement en hématocrite)
1 | O=C1CC[C@@]2(O)[C@H]3Cc4ccc(OP(=O)(O)OP(=O)(O)OP(=O)(O)O)c5c4[C@@]2(CCN3CC2CC2)[C@H]1O5 [naltrexone-3-triphosphate] | 34% | 93% | 86% | 90%
2 | O=C1CC[C@@]2(O)[C@H]3Cc4ccc(OP(=O)(O)O)c5c4[C@@]2(CCN3CC2CC2)[C@H]1O5 [naltrexone-3-phosphate] | 72% | 88% | 71% | 75%
3 | O=C1CC[C@@]2(OS(=O)(=O)O)[C@H]3Cc4ccc(OS(=O)(=O)O)c5c4[C@@]2(CCN3CC2CC2)[C@H]1O5 [naltrexone-3,14-disulfate] | 51% | 88% | 71% | 74%
4 | COP(=O)(O)Oc1ccc2c3c1O[C@H]1C(=O)CC[C@@]4(O)[C@@H](C2)N(CC2CC2)CC[C@]314 [naltrexone-3-phosphate(OMe)] | 62% | 86% | 81% | 71%
5 | C=CCN1CC[C@]23c4c5ccc(OP(=O)(O)O)c4O[C@H]2C(=O)CC[C@@]3(O)[C@H]1C5 [naloxone-3-phosphate] | 56% | 75% | 86% | 83%
6 | C=CCN1CC[C@]23c4c5ccc(OP(=O)(O)OP(=O)(O)OP(=O)(O)O)c4O[C@H]2C(=O)CC[C@@]3(O)[C@H]1C5 [naloxone-3-triphopshate] | 37% | 84% | 76% | 79%
7 | C=CCN1CC[C@]23c4c5ccc(OS(=O)(=O)O)c4O[C@H]2C(=O)CC[C@@]3(OS(=O)(=O)O)[C@H]1C5 [naloxone-3,14-disulfate] | 71% | 89% | 82% | 83%
8 | C=CCN1CC[C@]23c4c5ccc(OP(=O)(O)OC)c4O[C@H]2C(=O)CC[C@@]3(O)[C@H]1C5 [naloxone-3-phosphate(OMe)] | 60% | 86% | 84% | 73%
